Data source: PubChem BioAssay AID1259254 (NCATS, 2017)
The deposit covers about 59,000 reagents; this is an unselected part. About 1,550 of them (2.6%) count as active. 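G2 share is only a proxy for re-replication; each gene was hit by three separate siRNAs, and active genes were retested.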 The numbers tell different reagents against one gene apart. Not all columns of the deposit are shown. Not stated in the record: the amount of reagent.

Test: 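Genome-wide screen for genes that prevent DNA re-replication in cancer cells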 (primary screen)
System: human HCT116 colorectal cancer cells
Reagents: single siRNA against human genes
Timing: 3 days
Measurement: 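Nuclei stained with Hoechst and imaged; cell-cycle phase assigned by DNA content; G2 share scaled per plate, non-targeting siRNA 0%, GMNN siRNA 100%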
Reading the numbers: G2 robust z-score and G2 cells, % of GMNN control: higher = more G2 cells, more excess DNA replication
Hit rule: 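Active siRNAs have a G2 robust z of 5 or more median absolute deviations over the median, which in these data means about 38% or higher of GMNN control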

SLC25A30 #1 showed G2 robust z-score 0.068; G2 cells, % of GMNN control 3.45; inactive. With knock-down of SLC25A30 #2, the screen gave G2 robust z-score -0.00209; G2 cells, % of GMNN control 2.95; inactive. With knock-down of SLC25A30 #3 the results were G2 robust z-score -0.0215; G2 cells, % of GMNN control 2.82; inactive. SLC29A4P1 #1 scored G2 robust z-score 0.353; G2 cells, % of GMNN control 5.45; inactive. Against SLC29A4P1 #2, the entry reads G2 robust z-score -0.775; G2 cells, % of GMNN control -2.49; inactive. Against SLC29A4P1 #3, the values are G2 robust z-score 4.36; G2 cells, % of GMNN control 33.7; inactive.

With knock-down of FOXN2 (forkhead box N2) #1 the results were G2 robust z-score -0.392; G2 cells, % of GMNN control 0.206; inactive. FOXN2 (forkhead box N2) #2 showed G2 robust z-score -0.864; G2 cells, % of GMNN control -3.11; inactive. Silencing of FOXN2 (forkhead box N2) #3 resulted in: G2 robust z-score -1.28; G2 cells, % of GMNN control -6.02; inactive. H3C13 (H3 clustered histone 13) #1 scored G2 robust z-score -0.134; G2 cells, % of GMNN control 2.03; inactive. Silencing of H3C13 (H3 clustered histone 13) #2 resulted in: G2 robust z-score -0.938; G2 cells, % of GMNN control -3.63; inactive. For H3C13 (H3 clustered histone 13) #3, the values are G2 robust z-score 1.69; G2 cells, % of GMNN control 14.9; inactive.

Against CD300LF (CD300 molecule like family member f) #1, the entry reads G2 robust z-score -1.17; G2 cells, % of GMNN control -5.24; inactive. Knock-down of CD300LF (CD300 molecule like family member f) #2 resulted in: G2 robust z-score -0.442; G2 cells, % of GMNN control -0.144; inactive. CD300LF (CD300 molecule like family member f) #3 showed G2 robust z-score -1.33; G2 cells, % of GMNN control -6.41; inactive. Depletion of HMGA2 (high mobility group AT-hook 2) #1 gave: G2 robust z-score 0.13; G2 cells, % of GMNN control 3.89; inactive. HMGA2 (high mobility group AT-hook 2) #2 gave G2 robust z-score 0.303; G2 cells, % of GMNN control 5.1; inactive. Depletion of HMGA2 (high mobility group AT-hook 2) #3 gave: G2 robust z-score 0.851; G2 cells, % of GMNN control 8.96; inactive.
